# Assay results taken from the supplement of paper PMC12819154, “High-throughput peptide-centric local stability assay extends protein–ligand identification to membrane proteins, tissues and bacteria” (Nature Structural & Molecular Biology, 2025).
# Sequences of proteins named here, by UniProt entry; tags and fusion partners are left off. A change or cut given only in a name is not applied to a line headed by its entry.
# UniProt Q9CPR8: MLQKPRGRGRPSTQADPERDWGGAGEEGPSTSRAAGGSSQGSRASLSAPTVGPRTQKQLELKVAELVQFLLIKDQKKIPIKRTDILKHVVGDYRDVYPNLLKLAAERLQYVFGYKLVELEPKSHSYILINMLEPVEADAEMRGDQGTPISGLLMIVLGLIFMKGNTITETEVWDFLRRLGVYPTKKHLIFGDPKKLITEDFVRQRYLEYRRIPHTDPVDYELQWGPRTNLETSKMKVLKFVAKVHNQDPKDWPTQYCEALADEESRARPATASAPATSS
# UniProt Q9CQL6: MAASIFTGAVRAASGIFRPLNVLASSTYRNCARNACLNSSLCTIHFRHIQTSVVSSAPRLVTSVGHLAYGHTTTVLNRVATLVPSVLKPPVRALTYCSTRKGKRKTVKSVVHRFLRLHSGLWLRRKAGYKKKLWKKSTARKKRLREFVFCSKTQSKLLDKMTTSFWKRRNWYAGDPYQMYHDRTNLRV
# UniProt Q99PQ1: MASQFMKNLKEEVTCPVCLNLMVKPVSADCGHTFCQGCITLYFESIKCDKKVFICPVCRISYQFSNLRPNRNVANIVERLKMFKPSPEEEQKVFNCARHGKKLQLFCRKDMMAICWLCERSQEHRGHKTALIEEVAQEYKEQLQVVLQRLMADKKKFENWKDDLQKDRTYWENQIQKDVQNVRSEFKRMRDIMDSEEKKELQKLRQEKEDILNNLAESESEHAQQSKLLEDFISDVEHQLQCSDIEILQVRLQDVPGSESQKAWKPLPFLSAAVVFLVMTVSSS
# This is one part of the list. Most entries show no effect beyond the scatter of the controls.
# Compound: CN[C@@H]1C[C@H]2O[C@@](C)([C@@H]1OC)n1c3ccccc3c3c4c(c5c6ccccc6n2c5c31)C(=O)NC4 [staurosporine]
# Test: log2 fold change of tryptic peptide abundance, ligand vs vehicle (limited proteolysis) (log2 ratio); higher = more trypsin-susceptible (destabilized)
# Conditions: ligand concentration: 20 uM; sample: mouse liver crude lysate; replicate design: treated separately
row,Target,log2 fold change
1,"UniProt Q9CPR8 (peptide sequence: ASLSAPTVGPR, peptide start residue: 44)",-0.137
2,"UniProt Q9CQL6 (peptide sequence: EFVFCSK, peptide start residue: 146)",-0.196
3,"UniProt Q99PQ1 (peptide sequence: TYWENQIQK, peptide start residue: 169)",-0.359
4,"UniProt Q9CQL5 (peptide sequence: ENEAVAPEFTNRNPR, peptide start residue: 40)",-0.378
